Measurements reported in PubChem BioAssay AID652272 (Drosophila RNAi Screening Center, 2013).
Purpose: 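Genes whose knock-down decreases or increases Hedgehog reporter output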 (primary screen). Cell system: Drosophila clone 8 (Cl8) cells. Knock-down reagent: long dsRNA against Drosophila genes. Read-out: 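Firefly light from a Hedgehog-responsive ptc promoter reporter and Renilla reference light, both read on a plate reader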. Direction: firefly Hh reporter signal: higher = more ptc reporter light; Renilla reference signal: higher = more Renilla control light. Hit rule: 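Hit when the z-score averaged over two replicates is under -2 or over +3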. Meaning of the calls: active = hit: reporter lowered or raised; inactive = not a hit.
The deposit covers about 21,000 reagents; shown is an unselected part of those with a known target gene and a result. In the full data, 503 (2.4%) were called active. 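Raw plate light values, not normalised; calls rest on replicate z-scores that were not deposited; hits include reporter decreases as well as increases.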 Not stated in the record: the amount of reagent, the time to read-out.

Silencing of eIF3g2 [DRSC14275] gave: firefly Hh reporter signal, replicate 1 = 4.79e5; firefly Hh reporter signal, replicate 2 = 60027; Renilla reference signal, replicate 1 = 20884; Renilla reference signal, replicate 2 = 1312; inactive.
CG13625 [DRSC14627] showed firefly Hh reporter signal, replicate 1 = 91200; firefly Hh reporter signal, replicate 2 = 76754; Renilla reference signal, replicate 1 = 4619; Renilla reference signal, replicate 2 = 4251; inactive.
Dph2 [DRSC16222] showed firefly Hh reporter signal, replicate 1 = 1.10e5; firefly Hh reporter signal, replicate 2 = 70280; Renilla reference signal, replicate 1 = 4764; Renilla reference signal, replicate 2 = 3424; inactive.
Rilpl [DRSC18494] scored firefly Hh reporter signal, replicate 1 = 1.16e5; firefly Hh reporter signal, replicate 2 = 1.16e5; Renilla reference signal, replicate 1 = 2608; Renilla reference signal, replicate 2 = 3958; inactive.
Knock-down of CG14505 [DRSC06476] came out at: firefly Hh reporter signal, replicate 1 = 89523; firefly Hh reporter signal, replicate 2 = 67932; Renilla reference signal, replicate 1 = 1947; Renilla reference signal, replicate 2 = 4966; inactive.
For CG13423 [DRSC06386], the values are firefly Hh reporter signal, replicate 1 = 85672; firefly Hh reporter signal, replicate 2 = 48887; Renilla reference signal, replicate 1 = 2521; Renilla reference signal, replicate 2 = 1682; inactive.
With knock-down of Rhp [DRSC20279], the screen gave firefly Hh reporter signal, replicate 1 = 75232; firefly Hh reporter signal, replicate 2 = 1.65e5; Renilla reference signal, replicate 1 = 2227; Renilla reference signal, replicate 2 = 6676; inactive.
Against CG4872 [DRSC19921] the deposit lists firefly Hh reporter signal, replicate 1 = 89964; firefly Hh reporter signal, replicate 2 = 66834; Renilla reference signal, replicate 1 = 2300; Renilla reference signal, replicate 2 = 1556; inactive.
Depletion of TrpRS-m [DRSC10848] gave: firefly Hh reporter signal, replicate 1 = 69008; firefly Hh reporter signal, replicate 2 = 68272; Renilla reference signal, replicate 1 = 3126; Renilla reference signal, replicate 2 = 3336; inactive.

A run of entries from the list above:
CG14505 [DRSC06476] | firefly Hh reporter signal, replicate 1: 89523; firefly Hh reporter signal, replicate 2: 67932; Renilla reference signal, replicate 1: 1947; Renilla reference signal, replicate 2: 4966; activity call: inactive
CG13423 [DRSC06386] | firefly Hh reporter signal, replicate 1: 85672; firefly Hh reporter signal, replicate 2: 48887; Renilla reference signal, replicate 1: 2521; Renilla reference signal, replicate 2: 1682; activity call: inactive

Next reagents follow.
Picot [DRSC07508] scored firefly Hh reporter signal, replicate 1 = 1.45e5; firefly Hh reporter signal, replicate 2 = 1.23e5; Renilla reference signal, replicate 1 = 5654; Renilla reference signal, replicate 2 = 5867; inactive.
After knock-down of CG7342 [DRSC16230], the record shows firefly Hh reporter signal, replicate 1 = 98720; firefly Hh reporter signal, replicate 2 = 78944; Renilla reference signal, replicate 1 = 4283; Renilla reference signal, replicate 2 = 3223; inactive.
Silencing of adp [DRSC06916] gave: firefly Hh reporter signal, replicate 1 = 1.29e5; firefly Hh reporter signal, replicate 2 = 1.02e5; Renilla reference signal, replicate 1 = 5859; Renilla reference signal, replicate 2 = 4662; inactive.
For loj [DRSC09791], the entry reads firefly Hh reporter signal, replicate 1 = 1.02e5; firefly Hh reporter signal, replicate 2 = 74295; Renilla reference signal, replicate 1 = 5276; Renilla reference signal, replicate 2 = 3095; inactive.
NimB1 [DRSC01880] scored firefly Hh reporter signal, replicate 1 = 73569; firefly Hh reporter signal, replicate 2 = 79988; Renilla reference signal, replicate 1 = 3398; Renilla reference signal, replicate 2 = 3016; inactive.
